Laboratory results reported in paper PMC6989399, “A drug library screen identifies Carbenoxolone as novel FOXO inhibitor that overcomes FOXO3-mediated chemoprotection in high-stage neuroblastoma” (Oncogene, 2019).

Chains of the proteins cited; added tags and fusions are not shown. Lines headed by an entry give the natural chain unless they say otherwise; changes in a name come on top.
UniProt O43524: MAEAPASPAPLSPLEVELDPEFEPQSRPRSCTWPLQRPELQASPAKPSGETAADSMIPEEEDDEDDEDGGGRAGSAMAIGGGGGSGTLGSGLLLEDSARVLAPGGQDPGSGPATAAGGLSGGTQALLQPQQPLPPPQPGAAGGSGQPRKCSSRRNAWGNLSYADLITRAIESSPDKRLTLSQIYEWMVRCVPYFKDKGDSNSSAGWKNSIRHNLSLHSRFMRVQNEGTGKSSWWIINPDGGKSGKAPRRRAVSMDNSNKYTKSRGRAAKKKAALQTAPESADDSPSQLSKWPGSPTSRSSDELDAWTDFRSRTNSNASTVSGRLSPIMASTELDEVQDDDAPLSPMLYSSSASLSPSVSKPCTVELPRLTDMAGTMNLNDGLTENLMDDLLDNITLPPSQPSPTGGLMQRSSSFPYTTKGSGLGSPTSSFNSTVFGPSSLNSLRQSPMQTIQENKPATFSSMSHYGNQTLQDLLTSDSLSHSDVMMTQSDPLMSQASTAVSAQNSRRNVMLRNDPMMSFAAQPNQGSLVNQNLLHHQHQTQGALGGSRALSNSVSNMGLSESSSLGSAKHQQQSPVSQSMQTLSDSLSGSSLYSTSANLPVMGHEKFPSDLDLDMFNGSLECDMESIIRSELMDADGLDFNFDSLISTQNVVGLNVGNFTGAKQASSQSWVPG

Target: FOXO3(A3)ERtm (UniProt O43524)
Assay: EMSA
Conditions: FAM-EMSA: 20 mM Tris pH 7.5, 100 mM NaCl, 1 mM EDTA, 5% glycerol, 30 min RT, 5% PAGE 0.5x TBE, protein in a lysate after overexpression

Row | Sequence | binding result (30 ug whole-cell extract, 4OHT) | binding result (cells treated with CBX, 120-155 uM needed (10% FCS))
1 | AGCAAAGTTGGGGTTGATAATG (double strand) [FoxP3-mut-FAM] | no binding | –
2 | AGCAAAGTTGTTTTTGATAATG (double strand) [FoxP3-FAM] | binds | binds more weakly

The exact form of at least one protein or probe is not confirmed. At least one result comes from cells or an extract, where the contact may be indirect. No signal at the amounts used counts as a negative. Weaker means in comparison with the reference protein, sequence or condition of that experiment.
